Values of other authors, collected in patent publication US20220257527A1, “ORALLY ADMINISTRABLE FILMS COMPRISING POORLY WATER SOLUBLE ACTIVE INGREDIENTS AND PREPARATION THEREOF” (MAABAROT PRODUCTS LTD., priority 2019, published 2022).

Conditions: in water; also printed as ppm

## COC1=C(OC)C(=O)C(C/C=C(\C)CC/C=C(\C)CC/C=C(\C)CC/C=C(\C)CC/C=C(\C)CC/C=C(\C)CC/C=C(\C)CC/C=C(\C)CC/C=C(\C)CCC=C(C)C)=C(C)C1=O [CoQ10, coenzyme Q10]
  water solubility: 2 to 3 µg/mL
